Assay results from PMC5509727.
Results are given in words; binding and its absence hold for the method and conditions named. In cells and extracts the contact can be indirect. Some entries that bind do so weakly or less than the wild type. Sequences can lack the tags named with a protein.

Protein sequences, listed by entry. Tags and fused reporters are not part of them.
UniProt Q13574: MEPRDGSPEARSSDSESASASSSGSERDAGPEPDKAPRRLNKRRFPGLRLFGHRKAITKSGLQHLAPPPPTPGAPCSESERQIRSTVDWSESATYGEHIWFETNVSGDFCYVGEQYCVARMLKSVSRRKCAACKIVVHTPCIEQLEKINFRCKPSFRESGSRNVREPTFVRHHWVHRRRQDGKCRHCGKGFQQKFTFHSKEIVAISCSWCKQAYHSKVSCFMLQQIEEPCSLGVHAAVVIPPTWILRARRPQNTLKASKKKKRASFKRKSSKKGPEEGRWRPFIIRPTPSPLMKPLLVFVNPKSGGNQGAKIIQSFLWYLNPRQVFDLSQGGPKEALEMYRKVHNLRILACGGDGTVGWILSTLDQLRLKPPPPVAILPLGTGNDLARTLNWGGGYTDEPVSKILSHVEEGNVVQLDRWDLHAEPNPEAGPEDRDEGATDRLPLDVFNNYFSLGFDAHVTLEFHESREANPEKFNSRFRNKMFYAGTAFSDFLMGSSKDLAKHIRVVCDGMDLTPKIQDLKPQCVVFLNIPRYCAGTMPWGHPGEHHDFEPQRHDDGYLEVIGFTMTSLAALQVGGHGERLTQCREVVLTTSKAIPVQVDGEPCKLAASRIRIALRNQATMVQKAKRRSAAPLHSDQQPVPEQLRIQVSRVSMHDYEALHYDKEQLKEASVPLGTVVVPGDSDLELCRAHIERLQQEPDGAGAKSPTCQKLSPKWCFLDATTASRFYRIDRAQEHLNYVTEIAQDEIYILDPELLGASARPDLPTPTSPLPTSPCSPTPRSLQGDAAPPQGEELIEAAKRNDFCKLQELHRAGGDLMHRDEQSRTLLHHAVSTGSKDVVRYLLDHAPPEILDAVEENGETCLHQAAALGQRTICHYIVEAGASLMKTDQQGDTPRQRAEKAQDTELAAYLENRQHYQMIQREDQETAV
UniProt O75912: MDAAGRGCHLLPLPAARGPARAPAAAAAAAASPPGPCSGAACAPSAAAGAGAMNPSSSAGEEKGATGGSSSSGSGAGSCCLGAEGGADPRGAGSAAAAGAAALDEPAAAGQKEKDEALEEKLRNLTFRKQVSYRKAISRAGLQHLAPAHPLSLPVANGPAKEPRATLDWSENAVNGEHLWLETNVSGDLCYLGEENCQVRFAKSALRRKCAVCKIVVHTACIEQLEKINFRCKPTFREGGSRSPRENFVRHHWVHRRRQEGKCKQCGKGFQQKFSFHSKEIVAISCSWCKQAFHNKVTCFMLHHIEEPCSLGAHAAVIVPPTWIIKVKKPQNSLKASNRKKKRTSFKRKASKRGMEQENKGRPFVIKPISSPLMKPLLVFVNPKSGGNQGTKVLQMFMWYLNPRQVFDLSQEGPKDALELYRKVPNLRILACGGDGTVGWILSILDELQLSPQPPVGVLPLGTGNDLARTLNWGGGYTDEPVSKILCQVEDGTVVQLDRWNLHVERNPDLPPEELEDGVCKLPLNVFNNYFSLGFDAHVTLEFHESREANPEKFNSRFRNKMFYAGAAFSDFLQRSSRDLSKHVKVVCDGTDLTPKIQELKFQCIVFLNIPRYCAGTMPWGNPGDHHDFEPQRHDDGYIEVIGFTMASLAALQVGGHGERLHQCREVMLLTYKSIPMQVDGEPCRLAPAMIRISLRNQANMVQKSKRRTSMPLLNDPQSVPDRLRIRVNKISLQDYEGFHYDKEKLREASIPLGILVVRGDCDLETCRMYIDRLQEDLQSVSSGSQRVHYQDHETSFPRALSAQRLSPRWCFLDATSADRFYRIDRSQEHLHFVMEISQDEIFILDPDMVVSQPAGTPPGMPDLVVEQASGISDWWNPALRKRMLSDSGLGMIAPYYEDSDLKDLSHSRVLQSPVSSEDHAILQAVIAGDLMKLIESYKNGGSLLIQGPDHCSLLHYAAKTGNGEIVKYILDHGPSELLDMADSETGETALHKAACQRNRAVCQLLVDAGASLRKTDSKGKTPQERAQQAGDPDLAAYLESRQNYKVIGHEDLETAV
UniProt P23743: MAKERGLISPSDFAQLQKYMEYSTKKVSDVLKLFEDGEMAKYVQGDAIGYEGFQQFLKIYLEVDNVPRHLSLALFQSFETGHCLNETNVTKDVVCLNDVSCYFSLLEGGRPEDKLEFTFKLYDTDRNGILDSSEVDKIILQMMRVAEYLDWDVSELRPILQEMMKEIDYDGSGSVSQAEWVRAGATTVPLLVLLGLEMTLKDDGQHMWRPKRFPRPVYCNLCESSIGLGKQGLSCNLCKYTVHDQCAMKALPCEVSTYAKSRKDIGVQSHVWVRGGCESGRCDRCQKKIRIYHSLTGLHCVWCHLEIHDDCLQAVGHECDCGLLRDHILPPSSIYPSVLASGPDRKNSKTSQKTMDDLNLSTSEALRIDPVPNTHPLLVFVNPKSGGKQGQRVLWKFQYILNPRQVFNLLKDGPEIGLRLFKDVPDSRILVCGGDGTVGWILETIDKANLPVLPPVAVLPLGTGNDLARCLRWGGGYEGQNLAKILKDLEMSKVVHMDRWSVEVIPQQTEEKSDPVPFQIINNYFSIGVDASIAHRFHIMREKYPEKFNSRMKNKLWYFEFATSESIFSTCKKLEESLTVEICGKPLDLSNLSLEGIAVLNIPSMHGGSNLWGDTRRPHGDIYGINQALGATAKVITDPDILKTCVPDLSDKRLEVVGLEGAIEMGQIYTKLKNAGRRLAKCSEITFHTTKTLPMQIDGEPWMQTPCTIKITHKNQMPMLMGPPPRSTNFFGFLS
UniProt P49619: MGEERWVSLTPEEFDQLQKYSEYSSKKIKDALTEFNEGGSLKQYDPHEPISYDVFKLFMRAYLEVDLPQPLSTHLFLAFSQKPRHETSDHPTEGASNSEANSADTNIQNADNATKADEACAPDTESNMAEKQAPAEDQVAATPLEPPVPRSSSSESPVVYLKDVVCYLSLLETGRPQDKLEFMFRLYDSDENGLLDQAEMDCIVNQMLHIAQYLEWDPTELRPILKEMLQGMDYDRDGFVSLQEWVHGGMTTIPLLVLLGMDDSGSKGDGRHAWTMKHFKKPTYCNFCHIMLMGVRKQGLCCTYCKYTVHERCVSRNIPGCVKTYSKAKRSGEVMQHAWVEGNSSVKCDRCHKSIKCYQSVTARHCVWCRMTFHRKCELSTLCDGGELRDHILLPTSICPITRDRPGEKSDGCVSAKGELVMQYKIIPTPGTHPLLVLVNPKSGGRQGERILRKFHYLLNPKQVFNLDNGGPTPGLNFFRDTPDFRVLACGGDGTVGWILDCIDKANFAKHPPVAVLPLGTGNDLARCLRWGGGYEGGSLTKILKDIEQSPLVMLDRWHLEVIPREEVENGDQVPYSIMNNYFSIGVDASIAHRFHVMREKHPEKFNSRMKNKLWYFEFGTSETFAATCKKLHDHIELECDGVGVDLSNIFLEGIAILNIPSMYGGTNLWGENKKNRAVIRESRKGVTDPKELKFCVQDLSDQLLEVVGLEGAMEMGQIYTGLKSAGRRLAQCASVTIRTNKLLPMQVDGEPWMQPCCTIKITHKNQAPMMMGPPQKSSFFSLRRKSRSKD

Legend:
Experiment in all cases: co-IP; 293T cells expressing FLAG-IFT88 and HA-tagged DGK isoforms; anti-HA immunoprecipitation, anti-FLAG blot; RIPA lysis
[1] = biological target: HA-DGKζ (pCMV5-HA-hDGKζ) (human) (UniProt Q13574)
[2] = biological target: T1, HA-DGKε (pCMV5-HA-hDGKε) (human) (UniProt P52429)
T1 sequence: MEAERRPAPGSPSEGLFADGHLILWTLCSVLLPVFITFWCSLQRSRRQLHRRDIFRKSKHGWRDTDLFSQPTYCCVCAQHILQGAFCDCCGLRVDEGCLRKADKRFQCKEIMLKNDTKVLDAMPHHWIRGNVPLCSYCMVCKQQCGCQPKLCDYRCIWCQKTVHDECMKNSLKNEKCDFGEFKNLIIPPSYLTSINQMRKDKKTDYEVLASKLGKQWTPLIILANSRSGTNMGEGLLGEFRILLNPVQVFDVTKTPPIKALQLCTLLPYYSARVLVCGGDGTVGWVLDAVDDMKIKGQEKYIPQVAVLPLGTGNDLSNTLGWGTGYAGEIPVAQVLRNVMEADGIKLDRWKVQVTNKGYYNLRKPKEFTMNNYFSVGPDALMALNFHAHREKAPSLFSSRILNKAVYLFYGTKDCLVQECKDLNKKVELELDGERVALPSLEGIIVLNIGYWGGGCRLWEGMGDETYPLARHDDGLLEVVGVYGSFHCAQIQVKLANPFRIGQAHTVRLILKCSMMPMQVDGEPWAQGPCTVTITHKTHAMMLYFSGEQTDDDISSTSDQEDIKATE

[3] = biological target: HA-DGKι (pCMV5-HA-hDGKι) (human) (UniProt O75912)
[4] = biological target: HA-DGKα (pCMV5-HA-hDGKα) (human) (UniProt P23743)
[5] = biological target: HA-DGKγ (pCMV5-HA-hDGKγ) (human) (UniProt P49619)
[6] = biological target: T2, HA-DGKδ (pCMV5-HA-hDGKδ) (human) (UniProt Q16760)
T2 sequence: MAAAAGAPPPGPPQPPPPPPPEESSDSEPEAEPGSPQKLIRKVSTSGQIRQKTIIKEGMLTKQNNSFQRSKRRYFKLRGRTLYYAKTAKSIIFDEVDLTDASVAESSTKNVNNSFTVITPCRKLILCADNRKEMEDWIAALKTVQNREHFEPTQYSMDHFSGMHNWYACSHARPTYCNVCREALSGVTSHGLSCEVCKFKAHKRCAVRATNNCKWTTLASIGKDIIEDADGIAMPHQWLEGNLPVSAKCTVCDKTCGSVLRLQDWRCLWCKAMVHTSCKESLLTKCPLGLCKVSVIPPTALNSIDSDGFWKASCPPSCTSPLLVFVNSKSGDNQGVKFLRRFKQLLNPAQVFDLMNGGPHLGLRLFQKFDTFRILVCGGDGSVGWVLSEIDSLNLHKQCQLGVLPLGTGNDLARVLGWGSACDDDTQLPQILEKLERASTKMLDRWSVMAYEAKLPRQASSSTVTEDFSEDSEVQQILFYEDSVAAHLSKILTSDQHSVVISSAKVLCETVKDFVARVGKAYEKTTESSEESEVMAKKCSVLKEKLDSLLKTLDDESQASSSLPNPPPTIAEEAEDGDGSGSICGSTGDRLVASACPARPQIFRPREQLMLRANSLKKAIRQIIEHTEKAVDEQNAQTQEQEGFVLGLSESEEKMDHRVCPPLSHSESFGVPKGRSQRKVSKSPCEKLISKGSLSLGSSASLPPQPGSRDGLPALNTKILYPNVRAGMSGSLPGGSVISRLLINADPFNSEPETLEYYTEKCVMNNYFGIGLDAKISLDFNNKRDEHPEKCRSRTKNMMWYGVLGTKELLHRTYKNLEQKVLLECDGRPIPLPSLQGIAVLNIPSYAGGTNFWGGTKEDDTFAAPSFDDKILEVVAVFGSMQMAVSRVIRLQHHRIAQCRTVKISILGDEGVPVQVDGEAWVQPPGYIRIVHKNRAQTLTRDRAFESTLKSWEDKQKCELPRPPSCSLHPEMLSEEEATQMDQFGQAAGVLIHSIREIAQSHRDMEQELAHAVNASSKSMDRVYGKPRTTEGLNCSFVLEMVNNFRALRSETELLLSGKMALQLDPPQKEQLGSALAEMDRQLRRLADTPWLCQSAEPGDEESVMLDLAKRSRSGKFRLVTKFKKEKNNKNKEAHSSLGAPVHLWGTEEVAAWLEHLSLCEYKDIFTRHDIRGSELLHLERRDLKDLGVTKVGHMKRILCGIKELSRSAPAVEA

Measured: binding

B1: FLAG-IFT88 (pCMV-IFT88-3XFLAG) (protein, UniProt Q61371 1-824)
chain: MENVHLAPETDEDDLYSGFNDYNPAYDTEELENDTGFQQAVRTSHGRRPPVTAKIPSTAVSRPIATGYGSKTSLTSSMGRPMTGTIQDGVARPMTAVRAAGFSKAALRGSAFDPLGQSRGPAPPLEAKNEDSPEEKIRQLEKKVNELVEESCIANSCGDLKLALEKAKDAGRKERVLVRQREQVTSPENINLDLTYSVLFNLASQYSANEMYAEALNTYQVIVKNKMFSNAGRLKVNMGNIYLKQRNYSKAIKFYRMALDQIPSVHKEMRIKIMQNIGITFIKTGQYSDAINSFEHIMSMAPSLKAGFNLILSCFAIGDREKMKKAFQKLIAVPLEIDEDDKYISPSDDPHTNLLIEAIKNDHLRQMERERKAMAEKYIMTAAKLIAPVIEASFAVGYNWCVEVVKASQYVELANDLEINKAITYLRQKDFNQAVDTLKMFEKKDSRVKSAAATNLSFLYYLENEFAQASSYADLAVNSDRYNPSALTNKGNTVFANGDYEKAAEFYKEALRNDSSCTEALYNIGLTYKKLNRLDEALDSFLKLHAILRNSAQVLCQIANIYELMEDPNQAIEWLMQLISVVPTDSQALSKLGELYDSEGDKSQAFQYYYESYRYFPSNIEVIEWLGAYYIDTQFCEKAIQYFERASLIQPTQVKWQLMVASCFRRSGNYQKALDTYKEIHRKFPENVECLRFLVRLCTDIGLKEVQEYATKLKRLEKMKEMREQRIKSGRDSSGGSRSKREGSAGSDSGQNNSASSKSERLSAKLRALPGTDEPYESSGNKEIDASYVDPLGPQIERPKTAAKKRIDEDDFADEELGDDLLPE
binds: all assays above
